19 compounds from patent US20250122397A1, “FOOD SAFE AQUEOUS INKJET COMPOSITIONS” (Canon Production Printing Holding B.V., priority 2023, published 2025) can be followed below.

The structures appear in SMILES notation.

The nature of this data set: Smell test of aqueous Mg-salt solutions. The following applies: for smell test (pass): 1.5 mol/kg aqueous Mg-salt solution, summary of Table 1; for Smell (Yes/No): magnesium salt 1.5 mol/kg in demineralized water.

Turning to `CC(=O)CCC(=O)[O-].CC(=O)CCC(=O)[O-].[Mg+2]` [compound 14, Mg-levulinate], the “smell test (pass)” value was “pass” and the “Smell (Yes/No)” value is “No”.
On to `O=C([O-])C(O)C(O)C(=O)[O-].[Mg+2]` (stereo not shown) [compound 7], for which the “Smell (Yes/No)” value is given as “No”.
Take `C/C=C/C=C/C(=O)[O-].C/C=C/C=C/C(=O)[O-].[Mg+2]` [compound 12]: the “Smell (Yes/No)” value was “No”.
Still for that read-out and setting: the entry for `O.O.O=C([O-])[C@H](O)[C@@H](O)[C@H](O)[C@H](O)CO.O=C([O-])[C@H](O)[C@@H](O)[C@H](O)[C@H](O)CO.[Mg+2]` [compound 17] is “No”.
As to `CCCC(=O)[O-].CCCC(=O)[O-].[Mg+2]` [compound 9], the “Smell (Yes/No)” value is “Yes”.
Still for that read-out and setting: the entry for `O=C[O-].O=C[O-].[Mg+2]` [compound 4] is “Yes”; for `O=C([O-])CCCC(=O)[O-].[Mg+2]` [compound 13] it is “No”; for `CCC(=O)[O-].CCC(=O)[O-].[Mg+2]` [compound 6] it is “Yes”.
Regarding `C=C(CC(=O)[O-])C(=O)[O-].[Mg+2]` [compound 8, Mg-itaconate], the “smell test (pass)” value is recorded as “pass” and the “Smell (Yes/No)” value is listed as “No”.
For `O=S(=O)([O-])[O-].[Mg+2]` [compound 1, Mg-sulfate, reference compound], in that order: “pass” and “No”.
For `O=C([O-])CCC(=O)[O-].[Mg+2]` [compound 10, Mg-succinate], in that order: “pass” and “No”.
On to `O=C([O-])CC(O)C(=O)[O-].[Mg+2]` (stereo not shown) [compound 18], for which the “Smell (Yes/No)” value is listed as “No”.
Consider `CC(=O)[O-].CC(=O)[O-].[Mg+2]` [compound 3], for which the “Smell (Yes/No)” value is listed as “Yes”.
For `O=C([O-])CC(=O)[O-].[Mg+2]` [compound 16], the “Smell (Yes/No)” value is “No”.
As to `O=C([O-])/C=C/C(=O)[O-].[Mg+2]` [compound 11], the “Smell (Yes/No)” value is “No”.
Same read-out and setting: as for `CC(O)C(=O)[O-].CC(O)C(=O)[O-].[Mg+2]` (stereo not shown) [compound 5], the entry is “No”; as for `O=C([O-])CCCCCC(=O)[O-].[Mg+2]` [compound 19], “No”.
Turning to `O=[N+]([O-])[O-].O=[N+]([O-])[O-].[Mg+2]` [compound 2, Mg-nitrate, reference compound], the “smell test (pass)” value is “pass” and the “Smell (Yes/No)” value is “No”.
With `O=C([O-])CCCCC(=O)[O-].[Mg+2]` [compound 15, Mg-adipate], the “smell test (pass)” value is recorded as “pass” and the “Smell (Yes/No)” value is given as “No”.
